PubChem BioAssay AID686938 – Drosophila RNAi Screening Center, 2013
The deposit covers about 23,000 reagents; this is an unselected part of those that have a named target and a result. Of all reagents, 75 (0.33%) were called active. 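Raw plate signals without normalisation; calls rest on plate z-scores that were not deposited; ratio present for only 364 wells.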 Entries without a mark were called inactive. Reagent sequences are not shown. Not stated in the record: the dose of the treatment.

Screen: 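Knock-downs reducing store-operated calcium influx in Drosophila cells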 (primary screen)
Cells: Drosophila S2R+ cells
Reagents: long dsRNA against Drosophila genes, about 0.25 µg dsRNA per well, roughly 10,000 cells
Timing: 5 days of knock-down before the calcium assay
Conditions: thapsigargin (SERCA pump blocker) to empty calcium stores; entry signal taken 4 min after adding it
Measured: 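Per-well fluo-4 fluorescence in two replicates, unnormalised, measured in resting cells and 4 min after store depletion by the SERCA blocker thapsigargin; ratio of the two present in few wells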
Direction: calcium entry signal: higher = stronger calcium signal after store depletion; entry to resting ratio: higher = more calcium entry relative to resting level; resting calcium signal: higher = higher resting calcium signal
Units: calcium entry signal in fluorescence units; resting calcium signal in fluorescence units
Call rule: 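Called when the plate z-score of the entry-to-rest ratio, mean of duplicates, falls below −3; wells with low overall dye signal (Fmax z below −2) or more than five off-targets excluded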
Calls: active = strongly reduced calcium entry; inactive = no strong reduction

{"gene knocked down": "CG1789", "DRSC id": "DRSC18140", "calcium entry signal, replicate 1": 1.74e7, "calcium entry signal, replicate 2": 2.00e7, "resting calcium signal, replicate 1": 1.06e7, "resting calcium signal, replicate 2": 1.06e7}
{"gene knocked down": "na", "DRSC id": "DRSC19639", "calcium entry signal, replicate 1": 2.98e7, "calcium entry signal, replicate 2": 3.76e7, "resting calcium signal, replicate 1": 1.55e7, "resting calcium signal, replicate 2": 1.62e7}
{"gene knocked down": "CG13771", "DRSC id": "DRSC02277", "calcium entry signal, replicate 1": 2.50e7, "calcium entry signal, replicate 2": 2.93e7, "resting calcium signal, replicate 1": 1.32e7, "resting calcium signal, replicate 2": 1.40e7}
{"gene knocked down": "Coa8", "DRSC id": "DRSC17959", "calcium entry signal, replicate 1": 5.11e7, "calcium entry signal, replicate 2": 6.02e7, "entry to resting ratio": 2.1, "resting calcium signal, replicate 1": 2.43e7, "resting calcium signal, replicate 2": 2.35e7}
{"gene knocked down": "Sfxn1-3", "DRSC id": "DRSC12183", "calcium entry signal, replicate 1": 3.32e7, "calcium entry signal, replicate 2": 5.24e7, "resting calcium signal, replicate 1": 1.58e7, "resting calcium signal, replicate 2": 2.26e7}
{"gene knocked down": "CG7248", "DRSC id": "DRSC10788", "calcium entry signal, replicate 1": 3.04e7, "calcium entry signal, replicate 2": 4.03e7, "resting calcium signal, replicate 1": 1.59e7, "resting calcium signal, replicate 2": 1.88e7}
{"gene knocked down": "CG11975", "DRSC id": "DRSC14452", "calcium entry signal, replicate 1": 4.25e7, "calcium entry signal, replicate 2": 4.10e7, "resting calcium signal, replicate 1": 1.76e7, "resting calcium signal, replicate 2": 1.90e7}
{"gene knocked down": "CG32204", "DRSC id": "DRSC09574", "calcium entry signal, replicate 1": 2.05e7, "calcium entry signal, replicate 2": 3.06e7, "resting calcium signal, replicate 1": 9.89e6, "resting calcium signal, replicate 2": 1.37e7}
{"gene knocked down": "Spc25", "DRSC id": "DRSC14164", "calcium entry signal, replicate 1": 2.02e7, "calcium entry signal, replicate 2": 3.53e7, "resting calcium signal, replicate 1": 1.10e7, "resting calcium signal, replicate 2": 6.37e7}

The list goes on; the last 2 above are carried over.
{"gene knocked down": "CG32204", "DRSC id": "DRSC09574", "calcium entry signal, replicate 1": 2.05e7, "calcium entry signal, replicate 2": 3.06e7, "resting calcium signal, replicate 1": 9.89e6, "resting calcium signal, replicate 2": 1.37e7}
{"gene knocked down": "Spc25", "DRSC id": "DRSC14164", "calcium entry signal, replicate 1": 2.02e7, "calcium entry signal, replicate 2": 3.53e7, "resting calcium signal, replicate 1": 1.10e7, "resting calcium signal, replicate 2": 6.37e7}
{"gene knocked down": "sosie", "DRSC id": "DRSC14636", "calcium entry signal, replicate 1": 2.43e7, "calcium entry signal, replicate 2": 3.74e7, "resting calcium signal, replicate 1": 1.47e7, "resting calcium signal, replicate 2": 1.57e7}
{"gene knocked down": "sosie", "DRSC id": "DRSC21382", "calcium entry signal, replicate 1": 4.08e7, "calcium entry signal, replicate 2": 3.35e7, "resting calcium signal, replicate 1": 2.23e7, "resting calcium signal, replicate 2": 1.61e7}
{"gene knocked down": "CG5280", "DRSC id": "DRSC10498", "calcium entry signal, replicate 1": 3.51e7, "calcium entry signal, replicate 2": 4.21e7, "resting calcium signal, replicate 1": 1.71e7, "resting calcium signal, replicate 2": 1.80e7}
{"gene knocked down": "CG5280", "DRSC id": "DRSC22835", "calcium entry signal, replicate 1": 2.94e7, "calcium entry signal, replicate 2": 5.13e7, "resting calcium signal, replicate 1": 1.44e7, "resting calcium signal, replicate 2": 2.24e7}
{"gene knocked down": "CG18563", "DRSC id": "DRSC02676", "calcium entry signal, replicate 1": 3.83e7, "calcium entry signal, replicate 2": 2.64e7, "resting calcium signal, replicate 1": 1.56e7, "resting calcium signal, replicate 2": 1.23e7}
{"gene knocked down": "alt", "DRSC id": "DRSC15315", "calcium entry signal, replicate 1": 6.59e7, "calcium entry signal, replicate 2": 4.04e7, "resting calcium signal, replicate 1": 3.15e7, "resting calcium signal, replicate 2": 1.82e7}
{"gene knocked down": "beat-Ib", "DRSC id": "DRSC03490", "calcium entry signal, replicate 1": 4.77e7, "calcium entry signal, replicate 2": 3.98e7, "resting calcium signal, replicate 1": 2.06e7, "resting calcium signal, replicate 2": 1.71e7}
{"gene knocked down": "dwg", "DRSC id": "DRSC18766", "calcium entry signal, replicate 1": 3.68e7, "calcium entry signal, replicate 2": 4.47e7, "resting calcium signal, replicate 1": 1.82e7, "resting calcium signal, replicate 2": 2.20e7}
{"gene knocked down": "CG18746", "DRSC id": "DRSC15383", "calcium entry signal, replicate 1": 4.84e7, "calcium entry signal, replicate 2": 4.97e7, "resting calcium signal, replicate 1": 2.02e7, "resting calcium signal, replicate 2": 2.12e7}
{"gene knocked down": "Gapdh1", "DRSC id": "DRSC07433", "calcium entry signal, replicate 1": 2.26e7, "calcium entry signal, replicate 2": 2.87e7, "resting calcium signal, replicate 1": 1.19e7, "resting calcium signal, replicate 2": 1.29e7}
{"gene knocked down": "TTLL3A", "DRSC id": "DRSC02143", "calcium entry signal, replicate 1": 2.63e7, "calcium entry signal, replicate 2": 2.64e7, "resting calcium signal, replicate 1": 1.28e7, "resting calcium signal, replicate 2": 1.24e7}
{"gene knocked down": "VhaPPA1-2", "DRSC id": "DRSC16176", "calcium entry signal, replicate 1": 2.94e7, "calcium entry signal, replicate 2": 6.43e7, "resting calcium signal, replicate 1": 1.50e7, "resting calcium signal, replicate 2": 6.95e7}
{"gene knocked down": "tomboy40", "DRSC id": "DRSC04918", "calcium entry signal, replicate 1": 3.70e7, "resting calcium signal, replicate 1": 1.92e7}
{"gene knocked down": "CG14567", "DRSC id": "DRSC11728", "calcium entry signal, replicate 1": 3.62e7, "calcium entry signal, replicate 2": 5.58e7, "resting calcium signal, replicate 1": 1.62e7, "resting calcium signal, replicate 2": 2.25e7}
{"gene knocked down": "Hmbs", "DRSC id": "DRSC08632", "calcium entry signal, replicate 1": 3.20e7, "calcium entry signal, replicate 2": 2.52e7, "resting calcium signal, replicate 1": 1.36e7, "resting calcium signal, replicate 2": 1.30e7}
{"gene knocked down": "CG9067", "DRSC id": "DRSC07328", "calcium entry signal, replicate 1": 2.38e7, "calcium entry signal, replicate 2": 4.02e7, "resting calcium signal, replicate 1": 1.32e7, "resting calcium signal, replicate 2": 1.83e7}
{"gene knocked down": "CG1441", "DRSC id": "DRSC06448", "calcium entry signal, replicate 1": 3.71e7, "calcium entry signal, replicate 2": 3.06e7, "resting calcium signal, replicate 1": 1.59e7, "resting calcium signal, replicate 2": 1.49e7}
{"gene knocked down": "CG11670", "DRSC id": "DRSC14342", "calcium entry signal, replicate 1": 2.27e7, "calcium entry signal, replicate 2": 3.17e7, "resting calcium signal, replicate 1": 1.18e7, "resting calcium signal, replicate 2": 2.98e7}
